Assay results: publication PMC5399293, “Hierarchical assembly of centriole subdistal appendages via centrosome binding proteins CCDC120 and CCDC68” (Nature Communications, 2017)
These are yes or no findings as the source states them, for the method shown. In cells and extracts the contact can be indirect. Here binding means that the protein was enriched with, or labelled near, the bait; the list need not be complete.

Biological target: CEP170, bait of the mass spectrometry screen (human)
Test: affinity purification with mass spectrometry; screen of CEP170-interacting proteins by mass spectrometry; bait and cells not told

binding: binds
B1: CCDC68, hit of the mass spectrometry screen (protein, UniProt Q9H2F9 1-335)
chain: MTTVTVTTEIPPRDKMEDNSALYESTSAHIIEETEYVKKIRTTLQKIRTQMFKDEIRHDSTNHKLDAKHCGNLQQGSDSEMDPSCCSLDLLMKKIKGKDLQLLEMNKENEVLKIKLQASREAGAAALRNVAQRLFENYQTQSEEVRKKQEDSKQLLQVNKLEKEQKLKQHVENLNQVAEKLEEKHSQITELENLVQRMEKEKRTLLERKLSLENKLLQLKSSATYGKSCQDLQREISILQEQISHLQFVIHSQHQNLRSVIQEMEGLKNNLKEQDKRIENLREKVNILEAQNKELKTQVALSSETPRTKVSKAVSTSELKTEGVSPYLMLIRLRK
